According to PMC9491610:
Changes are numbered by the printed parent chain. Results are given in words; binding and its absence hold for the method and conditions named. Binding seen in cells or lysates may run through a third protein. Some entries that bind do so weakly or less than the wild type.

Protein sequences, listed by entry. Tags and fused reporters are not part of them. Lines headed by an entry give the natural chain unless they say otherwise; changes in a name come on top.
UniProt P09733: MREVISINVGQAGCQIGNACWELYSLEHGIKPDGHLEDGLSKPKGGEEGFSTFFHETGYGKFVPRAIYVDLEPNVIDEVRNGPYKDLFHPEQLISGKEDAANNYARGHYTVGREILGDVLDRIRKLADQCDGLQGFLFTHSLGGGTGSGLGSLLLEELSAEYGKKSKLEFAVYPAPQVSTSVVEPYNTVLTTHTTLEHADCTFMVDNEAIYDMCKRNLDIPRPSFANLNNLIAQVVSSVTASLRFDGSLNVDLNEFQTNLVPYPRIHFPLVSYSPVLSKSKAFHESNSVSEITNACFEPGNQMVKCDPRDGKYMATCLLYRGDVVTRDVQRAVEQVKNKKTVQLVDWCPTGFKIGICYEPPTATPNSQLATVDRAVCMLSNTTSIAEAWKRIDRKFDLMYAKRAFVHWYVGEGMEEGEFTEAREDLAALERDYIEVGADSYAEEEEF

Assays:
Test in all cases: co-IP; Stu2-HA precipitated with anti-HA magnetic beads from 67 mg cryo-milled yeast extract in PEM buffer (80 mM PIPES, 1 mM EGTA, 1 mM MgCl2, pH 6.8); precipitate blotted with anti α-tubulin (anti-Tub1) as surrogate for αβ-tubulin
[1] = target: T1, Stu2-K252R-3xHA (S. cerevisiae) (UniProt P46675)
T1 sequence: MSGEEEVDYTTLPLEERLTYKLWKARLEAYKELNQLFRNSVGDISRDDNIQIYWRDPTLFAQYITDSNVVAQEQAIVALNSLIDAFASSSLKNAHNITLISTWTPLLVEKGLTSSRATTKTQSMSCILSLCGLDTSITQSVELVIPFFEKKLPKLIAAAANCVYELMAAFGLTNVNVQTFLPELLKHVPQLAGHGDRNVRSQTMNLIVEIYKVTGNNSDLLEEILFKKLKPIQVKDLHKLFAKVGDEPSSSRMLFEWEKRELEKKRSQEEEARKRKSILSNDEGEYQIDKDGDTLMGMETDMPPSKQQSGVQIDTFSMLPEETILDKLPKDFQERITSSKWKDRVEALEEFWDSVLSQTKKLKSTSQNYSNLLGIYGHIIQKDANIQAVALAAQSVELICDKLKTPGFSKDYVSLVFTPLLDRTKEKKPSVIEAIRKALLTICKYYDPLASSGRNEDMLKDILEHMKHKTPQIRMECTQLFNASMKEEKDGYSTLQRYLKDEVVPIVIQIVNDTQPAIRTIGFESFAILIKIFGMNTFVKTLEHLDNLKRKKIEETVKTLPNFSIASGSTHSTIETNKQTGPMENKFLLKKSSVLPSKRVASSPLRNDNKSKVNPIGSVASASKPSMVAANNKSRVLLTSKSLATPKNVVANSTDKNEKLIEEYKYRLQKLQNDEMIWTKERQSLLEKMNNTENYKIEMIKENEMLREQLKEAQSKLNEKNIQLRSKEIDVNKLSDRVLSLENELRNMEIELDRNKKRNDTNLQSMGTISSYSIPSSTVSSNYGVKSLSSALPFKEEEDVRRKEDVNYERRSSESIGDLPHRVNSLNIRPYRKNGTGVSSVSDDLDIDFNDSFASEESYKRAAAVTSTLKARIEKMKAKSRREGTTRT

[2] = target: T2, Stu2-K469R-3xHA (S. cerevisiae) (UniProt P46675)
T2 sequence: T1 sequence with R252K, K469R

[3] = target: T3, Stu2-K252Q-3xHA (S. cerevisiae) (UniProt P46675)
T3 sequence: T1 sequence with R252Q

binding [1]: binds
binding [2]: binds
binding [3]: binds
Substance: αβ-tubulin heterodimer (from UniProt P09733 1-447; P02557 1-457) (complex)
